Source: patent publication JP2018038398A
These are yes or no findings as the source states them, for the method shown. Some entries that bind do so weakly or less than the wild type.

Sequences of proteins named here, by UniProt entry; tags and fusion partners are left off. Residues count along the entry.
UniProt P10646, residues 29-304: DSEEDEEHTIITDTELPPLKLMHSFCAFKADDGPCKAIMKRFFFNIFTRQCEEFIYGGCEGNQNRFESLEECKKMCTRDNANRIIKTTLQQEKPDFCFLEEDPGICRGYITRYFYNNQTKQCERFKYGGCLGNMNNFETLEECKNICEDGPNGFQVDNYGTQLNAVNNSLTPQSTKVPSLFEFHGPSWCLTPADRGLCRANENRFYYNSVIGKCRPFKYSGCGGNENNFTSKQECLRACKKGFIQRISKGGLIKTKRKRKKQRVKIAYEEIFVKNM

Target: ヒトTFPI(American Diagnostica) (human) (UniProt P10646)
Assay: ELISA screen of Fab lysates on coated human TFPI

| binding | Binder |
| --- | --- |
| binds | TP-3C3 (Fab, V domains shown) VH: QVQLQQSGPGLVKPSQTLSLTCAISGDSVSSNSAAWGWIRQSPGRGLEWLGVIYYRSKWYNDYAVSVKSRITINPDTSKNQFSLQLNSVTPEDTAVYYCARARAKKSGGFDYWGQGTLVTVSS VL: DIQMTQSPSSLSASVGDRVTITCRASQSINPYLNWYQQKPGKAPKLLIYAASNLQSGVPSRFSGSGSGTDFTLTISSLQPEDFAVYYCQQLDNRSITFGQGTKVEIKR |
| binds | TP-2G2 (Fab, V domains shown) VH: QVQLVESGGGLVQPGGSLRLSCAASGFTFSSYAMNWVRQAPGKGLEWVSAILSDGSSTSYADSVKGRFTISRDNSKNTLYLQMNSLRAEDTAVYYCARYPDWGWYTDVWGQGTLVTVSS VL: DIELTQPPSVSVAPGQTARISCSGDNIRKFYVHWYQQKPGQAPVLVIYGTNKRPSGIPERFSGSNSGNTATLTISGTQAEDEADYYCQSYDSKFNTVFGGGTKLTVLG |
| binds | TP-2E5 (Fab, V domains shown) VH: QVQLQQSGPGLVKPSQTLSLTCAISGDSVSSNSAAWSWIRQSPGRGLEWLGMIFYRSKWNNDYAVSVKSRITINPDTSKNQFSLQLNSVTPEDTAVYYCARVNANGYYAYVDLWGQGTLVTVSS VL: DIQMTQSPSSLSASVGDRVTITCRASQPIYNSLSWYQQKPGKAPKLLIYGVSNLQSGVPSRFSGSGSGTDFTLTISSLQPEDFAVYYCLQVDNLPITFGQGTKVEIKR |
| binds | TP-3A3 (Fab, V domains shown) VH: QVQLVESGGGLVQPGGSLRLSCAASGFTFNNNAISWVRQAPGKGLEWVSAINSSSSSTSYADSVKGRFTISRDNSKNTLYLQMNSLRAEDTAVYYCARGHHRGHSWASFIDYWGQGTLVTVSS VL: DIELTQPPSVSVAPGQTARISCSGDNIGSKYVHWYQQKPGQAPVVVIYEDSDRPSGIPERFSGSNSGNTATLTISGTQAEDEADYYCQSWDKSEGYVFGGGTKLTVLG |
| binds | TP-2G4 (Fab, V domains shown) VH: QVQLVESGGGLVQPGGSLRLSCAASGFTFSSYAMTWVRQAPGKGLEWVSNISYSGSNTYYADSVKGRFTISRDNSKNTLYLQMNSLRAEDTAVYYCARVGYYYGFDYWGQGTLVTVSS VL: DIELTQPPSVSVAPGQTARISCSGDALRKHYVYWYQQKPGQAPVLVIYGDNNRPSGIPERFSGSNSGNTATLTISGTQAEDEADYYCQSYDKPYPILVFGGGTKLTVLG |
| binds | TP-3B3 (Fab, V domains shown) VH: QVQLVESGGGLVQPGGSLRLSCAASGFTFSSYGMHWVRQAPGKGLEWVSNISYMGSNTNYADSVKGRFTISRDNSKNTLYLQMNSLRAEDTAVYYCARGLFPGYFDYWGQGTLVTVSS VL: DIELTQPASVSVAPGQTARISCSGDNLRSKYAHWYQQKPGQAPVLVIYGDNNRPSGIPERFSGSNSGNTATLTISGTQAEDEADYYCSAYAMGSSPVFGGGTKLTVLG |
| binds | TP-3D3 (Fab, V domains shown) VH: QVQLVESGGGLVQPGGSLRLSCAASGFTFSSYASWVRQAPGKGLEWVSGISGDGSNTHYADSVKGRFTISRDNSKNTLYLQMNSLRAEDTAVYYCARYDNFYFDVWGQGTLVTVSS VL: DIELTQPPSVSVAPGQTARISCSGDSLGSKFAHWYQQKPGQAPVLVIYDDSNRPSGIPERFSGSNSGNTATLTISGTQAEDEADYYCSTYTSRSHSYVFGGGTKLTVLG |
| binds | TP-2A2 (Fab, V domains shown) VH: QVQLVESGGGLVQPGGSLRLSCAASGFTFSNNAMNWVRQAPGKGLEWVSTISYDGSNTYYADSVKGRFTISRDNSKNTLYLQMNSLRAEDTAVYYCARQAGGWTYSYTDVWGQGTLVTVSS VL: DIELTQPPSVSVAPGQTARISCSGDNIRTYYVHWYQQKPGQAPVVVIYGDSKRPSGIPERFSGSNSGNTATLTISGTQAEDEADYYCQSYDSEADSEVFGGGTKLTVLG |
| binds | TP-2G7 (Fab, V domains shown) VH: QVQLVESGGGLVQPGGSLRLSCAASGFTFNSYAMSWVRQAPGKGLEWVSNISSNSSNTYYADSVKGRFTISRDNSKNTLYLQMNSLRAEDTAVYYCARKGGGEHGFFPSDIWGQGTLVTVSS VL: DIELTQPPSVSVAPGQTARISCSGDNLGTYYVHWYQQKPGQAPVLVIYGDNNRPSGIPERFSGSNSGNTATLTISGTQAEDEADYYCQTYDSNNESIVFGGGTKLTVLG |
| binds | TP-2B9 (Fab, V domains shown) VH: QVQLQQSGPGLVKPSQTLSLTCAISGDSVSSNSAAWGWIRQSPGRGLEWLGMIYHRSKWYNDYAVSVKSRITINPDTSKNQFSLQLNSVTPEDTAVYYCARYSSIGHMDYWGQGTLVTVSS VL: DIQMTQSPSSLSASVGDRVTITCRASQSIRSYLAWYQQKPGKAPKLLIYKASNLQSGVPSRFSGSGSGTDFTLTISSLQPEDFAVYYCHQYSDSPVTFGQGTKVEIKR |
| binds | TP-2C7 (Fab, V domains shown) VH: QVQLQQSGPGLVKPSQTLSLTCAISGDSVSSNSAAWGWIRQSPGRGLEWLGIIYYRSKWYNHYAVSVKSRITINPDTSKNQFSLQLNSVTPEDTAVYYCARSNWSGYFDYWGQGTLVTVSS VL: DIQMTQSPSSLSASVGDRVTITCRASQDIRNNLAWYQQKPGKAPKLLIYAASSLQSGVPSRFSGSGSGTDFTLTISSLQPEDFAVYYCQQRNGFPLTFGQGTKVEIKR |
| binds | TP-2E3 (Fab, V domains shown) VH: QVQLQQSGPGLVKPSQTLSLTCAISGDSVSSNSAAWGWIRQSPGRGLEWLGMIYYRSKWYNDYAVSVKSRITINPDTSKNQFSLQLNSVTPEDTAVYYCARVNQYTSSDYWGQGTLVTVSS VL: DIALTQPASVSGSPGQSITISCTGTSSDIGGYNYVSWYQQHPGKAPKLMIYGVNYRPSGVSNRFSGSKSGNTASLTISGLQAEDEADYYCSSADKFTMSIVFGGGTKLTVLG |
| binds | TP-3C2 (Fab, V domains shown) VH: QVQLQQSGPGLVKPSQTLSLTCAISGDSVSSSSAAWSWIRQSPGRGLEWLGMIYYRSKWYNHYAVSVKSRITINPDTSKNQFSLQLNSVTPEDTAVYYCARGGSGVMDVWGQGTLVTVSS VL: DIQMTQSPSSLSASVGDRVTITCRASQSITNYLNWYQQKPGKAPKLLIYDVSNLQSGVPSRFSGSGSGTDFTLTISSLQPEDFAVYYCQQYSGYPLTFGQGTKVEIKR |
| binds | TP-2A5.1 (Fab, V domains shown) VH: QVQLVESGGGLVQPGGSLRLSCAASGFTFSSYGSWVRQAPGKGLEWVSVISGSGSSTYYADSVKGRFTISRDNSKNTLYLQMNSLRAEDTAVYYCARVNISTHFDVWGQGTLVTVSS VL: DIELTQPPSVSVAPGQTARISCSGDNIPEKYVHWYQQKPGQAPVLVIHGDNNRPSGIPERFSGSNSGNTATLTISGTQAEDEADYYCQSFDAGSYFVFGGGTKLTVLG |
| binds | TP-2G6 (Fab, V domains shown) VH: QVQLQQSGPGLVKPSQTLSLTCAISGDSVSSSSAAWSWIRQSPGRGLEWLGIIYYRSKWYNDYAVSVKSRITINPDTSKNQFSLQLNSVTPEDTAVYYCARHSMVGFDVWGQGTLVTVSS VL: DIVLTQSPATLSLSPGERATLSCRASQYVTSSYLAWYQQKPGQAPRLLIYGSSRATGVPARFSGSGSGTDFTLTISSLEPEDFATYYCQQYSSSPITFGQGTKVEIKR |
| binds | TP-2C1 (Fab, V domains shown) VH: QVQLVESGGGLVQPGGSLRLSCAASGFTFSPYVMSWVRQAPGKGLEWVSSISSSSSNTYYADSVKGRFTISRDNSKNTLYLQMNSLRAEDTAVYYCARGDSYMYDVWGQGTLVTVSS VL: DIELTQPPSVSVAPGQTARISCSGDSIGSYYAHWYQQKPGQAPVLVIYYDSKRPSGIPERFSGSNSGNTATLTISGTQAEDEADYYCQAYTGQSISRVFGGGTKLTVLG |
| binds | TP-2A6 (Fab, V domains shown) VH: QVQLVESGGGLVQPGGSLRLSCAASGFTFSRYAMSWVRQAPGKGLEWVSSIISSSSETYYADSVKGRFTISRDNSKNTLYLQMNSLRAEDTAVYYCARLMGYGHYYPFDYWGQGTLVTVSS VL: DIELTQPPSVSVAPGQTARISCSGDKIGSKYVYWYQQKPGQAPVLVIYDSNRPSGIPERFSGSNSGNTATLTISGTQAEDEADYYCASYDSIYSYWVFGGGTKLTVLG |
| binds | TP-3A2 (Fab, V domains shown) VH: QVQLVESGGGLVQPGGSLRLSCAASGFTFSNYYLSWVRQAPGKGLEWVSGISYNGSSTNYADSVKGRFTISRDNSKNTLYLQMNSLRAEDTAVYYCARMWRYSLGADSWGQGTLVTVSS VL: DIELTQPPSVSVAPGQTARISCSGDNIGSRYAYWYQQKPGQAPVVVIYDDSDRPSGIPERFSGSNSGNTATLTISGTQAEDEADYYCAAYTFYARTVFGGGTKLTVLG |
| binds | TP-3B4 (Fab, V domains shown) VH: QVQLQQSGPGLVKPSQTLSLTCAISGDSVSSNGAAWGWIRQSPGRGLEWLGHIYYRSKWYNSYAVSVKSRITINPDTSKNQFSLQLNSVTPEDTAVYYCARWGGIHDGDIYFDYWGQGTLVTVSS VL: DIQMTQSPSSLSASVGDRVTITCRASQNISNYLNWYQQKPGKAPKLLIYGTSSLQSGVPSRFSGSGSGTDFTLTISSLQPEDFAVYYCQQYGNNPTTFGQGTKVEIKR |
| binds | TP-3A4 (Fab, V domains shown) VH: QVQLVESGGGLVQPGGSLRLSCAASGFTFSSYWMHWVRQAPGKGLEWVSSISYDSSNTYYADSVKGRFTISRDNSKNTLYLQMNSLRAEDTAVYYCARYGGMDYWGQGTLVTVSS VL: DIELTQPPSVSVAPGQTARISCSGDNLRDKYASWYQQKPGQAPVLVIYSKSERPSGIPERFSGSNSGNTATLTISGTQAEDEADYYCSSYTLNPNLNYVFGGGTKLTVLG |
| binds | TP-2G9 (Fab, V domains shown) VH: QVQLVESGGGLVQPGGSLRLSCAASGFTFNSYAMTWVRQAPGKGLEWVSAIKSDGSNTYYADSVKGRFTISRDNSKNTLYLQMNSLRAEDTAVYYCARNDSGWFDVWGQGTLVTVSS VL: DIALTQPASVSGSPGQSITISCTGTSSDLGGFNTVSWYQQHPGKAPKLMIYSVSSRPSGVSNRFSGSKSGNTASLTISGLQAEDEADYYCQSYDLNNLVFGGGTKLTVLG |
| binds | TP-3C1 (Fab, V domains shown) VH: QVQLVESGGGLVQPGGSLRLSCAASGFTFSSYSMHWVRQAPGKGLEWVSGISYSSSFTYYADSVKGRFTISRDNSKNTLYLQMNSLRAEDTAVYYCARALGGGVDYWGQGTLVTVSS VL: DIALTQPASVSGSPGQSITISCTGTSSDLGGFNTVSWYQQHPGKAPKLMIYSVSSRPSGVSNRFSGSKSGNTASLTISGLQAEDEADYYCQSYDLNNLVFGGGTKLTVLG |
